Assay results reported in paper PMC8718147.
No constants are given. Whether binding was seen depends on the method and setting. Binding seen in cells or lysates may run through a third protein. Some entries that bind do so weakly or less than the wild type.

Chains of the proteins cited; added tags and fusions are not shown.
UniProt P59941: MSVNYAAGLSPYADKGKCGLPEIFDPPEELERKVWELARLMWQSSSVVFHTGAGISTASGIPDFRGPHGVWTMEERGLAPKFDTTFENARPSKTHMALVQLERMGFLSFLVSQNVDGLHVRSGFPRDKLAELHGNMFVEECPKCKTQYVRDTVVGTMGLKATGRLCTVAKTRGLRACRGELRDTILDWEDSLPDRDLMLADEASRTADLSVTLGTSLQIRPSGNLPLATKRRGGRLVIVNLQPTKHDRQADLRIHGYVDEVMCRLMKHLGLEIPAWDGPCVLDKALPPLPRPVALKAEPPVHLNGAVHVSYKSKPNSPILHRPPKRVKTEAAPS
UniProt Q6P5F9: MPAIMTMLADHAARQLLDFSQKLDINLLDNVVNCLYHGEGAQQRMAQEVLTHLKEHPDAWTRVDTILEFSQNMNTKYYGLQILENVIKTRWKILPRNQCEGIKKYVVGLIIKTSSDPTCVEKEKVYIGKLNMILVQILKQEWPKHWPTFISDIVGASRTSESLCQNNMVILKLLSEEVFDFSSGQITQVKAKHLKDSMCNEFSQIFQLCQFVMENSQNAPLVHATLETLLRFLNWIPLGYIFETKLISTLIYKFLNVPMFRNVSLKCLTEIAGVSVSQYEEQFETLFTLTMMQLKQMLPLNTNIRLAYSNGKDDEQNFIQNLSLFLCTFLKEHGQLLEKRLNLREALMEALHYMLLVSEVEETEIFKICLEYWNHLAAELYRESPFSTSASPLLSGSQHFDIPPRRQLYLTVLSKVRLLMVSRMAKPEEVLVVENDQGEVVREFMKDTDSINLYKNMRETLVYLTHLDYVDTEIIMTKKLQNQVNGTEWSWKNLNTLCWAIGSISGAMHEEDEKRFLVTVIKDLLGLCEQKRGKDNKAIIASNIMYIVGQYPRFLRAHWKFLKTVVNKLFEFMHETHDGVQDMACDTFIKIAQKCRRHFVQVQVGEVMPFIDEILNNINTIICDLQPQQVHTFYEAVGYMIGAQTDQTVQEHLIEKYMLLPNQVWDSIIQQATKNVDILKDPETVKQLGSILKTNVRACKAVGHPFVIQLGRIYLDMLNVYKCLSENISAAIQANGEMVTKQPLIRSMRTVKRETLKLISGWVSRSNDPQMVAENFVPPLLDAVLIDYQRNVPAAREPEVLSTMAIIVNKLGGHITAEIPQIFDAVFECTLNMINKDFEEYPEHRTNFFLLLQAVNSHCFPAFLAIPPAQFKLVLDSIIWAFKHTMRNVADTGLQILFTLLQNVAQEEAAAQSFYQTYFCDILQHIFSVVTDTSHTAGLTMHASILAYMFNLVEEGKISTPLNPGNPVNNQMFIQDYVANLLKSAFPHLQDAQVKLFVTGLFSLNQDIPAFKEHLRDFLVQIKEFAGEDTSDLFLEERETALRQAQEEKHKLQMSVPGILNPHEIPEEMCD
UniProt Q08775: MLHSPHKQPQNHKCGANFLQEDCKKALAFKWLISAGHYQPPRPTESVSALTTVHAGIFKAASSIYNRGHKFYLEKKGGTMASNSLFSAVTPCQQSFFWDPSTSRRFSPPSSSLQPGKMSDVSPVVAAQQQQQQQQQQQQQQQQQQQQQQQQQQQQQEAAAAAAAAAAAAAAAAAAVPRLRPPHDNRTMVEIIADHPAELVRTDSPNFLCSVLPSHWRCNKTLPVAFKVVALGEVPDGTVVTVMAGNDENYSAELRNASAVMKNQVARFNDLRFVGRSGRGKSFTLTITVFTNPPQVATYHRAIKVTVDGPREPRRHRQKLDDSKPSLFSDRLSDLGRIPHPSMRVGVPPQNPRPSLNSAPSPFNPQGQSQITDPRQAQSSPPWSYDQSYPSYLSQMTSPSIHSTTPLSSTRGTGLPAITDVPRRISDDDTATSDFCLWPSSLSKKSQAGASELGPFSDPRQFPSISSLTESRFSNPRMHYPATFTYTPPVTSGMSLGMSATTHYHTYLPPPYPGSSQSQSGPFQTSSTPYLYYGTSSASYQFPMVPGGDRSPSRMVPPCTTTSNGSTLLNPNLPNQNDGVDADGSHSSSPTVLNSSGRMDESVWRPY

Assays:
[1] = molecular target: Flag-tagged SIRT6 (mouse) (UniProt P59941); assay: co-IP; HEK-293T cells with HA-Runx2 plasmid, flag-SIRT6 plasmid, or both; anti-HA IP and anti-flag IP, Western blot with anti-HA or anti-flag; anti-rabbit IgG IP as negative control
[2] = molecular target: exportin 1 (XPO1), endogenous in mouse VSMCs (mouse (endogenous in mouse VSMCs)) (UniProt Q6P5F9); assay: co-IP; lysates of SIRT6-Tg VSMCs treated with Pi (3.0 mM) for 7 days; IP with the indicated antibody (anti-SIRT6, anti-Runx2 or anti-XPO1) overnight at 4°C, protein A+G magnetic beads, Western blot; IgG IP as negative control
[3] = molecular target: Sirtuin 6 (SIRT6) in SIRT6-Tg VSMCs (mouse) (UniProt P59941); assay: as above

| binding [1] | binding [2] | binding [3] | Substance |
| --- | --- | --- | --- |
| binds | – | – | HA-tagged Runx2 (from UniProt Q08775 1-607) |
| – | binds | binds | runt-related transcription factor 2 (Runx2), endogenous in mouse VSMCs (from UniProt Q08775 1-607) |
